Source: publication PMC10163288
The other results are listed elsewhere or left out.

B1: il2ra_site2_3nfp_sap_11_mot_HHH_b2_06897_000000042_0001_40_57_H_._HHH_b2_07419_0001_0000200035_0000001_0_0001 (protein)
chain: SSSSSREWARAAARTMLEALERNNDEENFEELREVVEEVEKEGDPRLVLKLYALLAEIYKKSSSS
B2: il2ra_site1_3nfp_normal_mot_HHH_b1_02235_000000281_0001_38_56_H_._70e64182809fe3cc67913f5218a30a03_0001_af2_0001_0000600025_0000001_0_af2pred_0001_af2pred_swapp … (protein)
chain: SREVSKLIKELARRATTPEQLRLLEEVAQLLAKNLEEALELLRELVKRYGDPLLEELLELLEELR
B3: il2ra_site1_3nfp_normal_mot_HHH_b1_03716_af2_000000235_0001_20_37_H_._HHH_b1_02112_0001_0000300016_0000001_1_af2pred_0001_af2pred_1 (protein)
chain: SSSSSDLRELLKEVEELLERIAKTTDPEERERLLERLEELAEENNDPTLKLVVELLRRALSSSSS
B4: il2ra_site1_1z92_sap_24_mot_HHH_b1_04917_000000121_0001_22_38_H_._HHH_b1_01483_af2_0001_0000600028_0000001_0_0001_af2pred_dldesign_0_af2pred (protein)
chain: SSSSSSEEELYDKVEELFKEASKLKDKEKRKKLLEEALELAKKANAPLLVKDIETYLKLLSSSSS
B5: il2ra_site2_2erj_normal_mot_HHH_b1_05749_af2_000000058_0001_23_39_H_._HHH_b2_00323_0001_0000100013_0000001_1 (protein)
chain: SSSSSEIREEVERLLEEARELLEEGDLEEAFRVADEALHLASEARDQELLELILEFLEEHSSSSS
B6: il2ra_site2_3nfp_sap_22_mot_ems_3hM_1278_af2_000000151_0001_43_60_H_._HHH_b2_04893_0001_0000100005_0000001_0_0001 (protein)
chain: SSSSSEELEELIEQARELLEEGDKYEAAQVVLRASRLALELNDPEAARRILELFEEIQRTSSSSS
B7: il2ra_site1_3nfp_normal_mot_HHH_b1_04931_000000291_0001_38_56_H_._HHH_b2_05360_0001_0000400014_0000001_0_af2pred_0001_af2pred_1 (protein)
chain: SSSSDVEEEIEEFLERIEKAAKDGDPKEADELVREAAKLALQNKDEEALRLLWELLRELSGSSSS
B8: il2ra_site2_2erj_sap_28_mot_ems_3hC_1315_af2_000000245_0001_45_63_H_._HHH_b2_04234_af2_0001_0000200007_0000001_0_0001 (protein)
chain: SSSSDEEEERVRELLEQAEELLERGNPEEAFRVLVEALQVASESNDPELEQLVFEAFERLVSSSS
B9: il2ra_site1_2b5i_normal_mot_HHH_b2_04910_000000118_0001_1_19_H_._HHH_b2_05414_0001_0000100006_0000001_0_af2pred_0001_af2pred_1 (protein)
chain: SSSSSDEELRRLLEEADEAAKNGNPEEAEKILEEAEKLAEEANDRSLRRAIEAILKMIKGSSSSS
B10: il2ra_site1_3nfp_normal_mot_HHH_b1_08149_af2_000000062_0001_43_57_H_._dd443d7604b6d6bd5a4a0e45f49110ec_0001_1_af2_0001_0000600033_0000001_0_af2pred_0001_af2pred … (protein)
chain: DELVEKLEEAIKRGDPRLVSELLRELAERIREGDPEARELREEAERLLEESGNPLAVLLLRRLES

target: il2ra, P01589; test: yeast display titration

Apparent Kd, inactive:
B1 no binding seen
B2 no binding seen
B3 no binding seen
B4 no binding seen
B5 no binding seen
B6 no binding seen
B7 no binding seen
B8 no binding seen
B9 no binding seen
B10 no binding seen
